# In PubChem BioAssay AID493014 (National Center for Advancing Translational Sciences (NCATS), 2011):
# The other results are listed elsewhere or left out. Shown are side measurements of this screen, not its main read-out; they come without a call. Most of these compounds were active or inconclusive in the main read-out, so they are no random draw. The note in brackets gives the kind of curve behind each potency; many fits are weak.
# Test: qHTS Assay to Find Inhibitors of Chronic Active B-Cell Receptor Signaling
# Conditions: ABC-DLBCL IkBa-CBG/CBR reporter, luminescence ratio (green luciferase fused to IkBa over red control in TMD8 lymphoma cells), 4 h
# Summary of the method: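 Cell line TMD8 (human ABC DLBCL), stably expressing tet-inducible CBG68-IkBa fusion and CBR; IMDM/0.5% FBS; cpd up to 46 uM; dox induction, 4 h, 37C/5% CO2; dual luminescence; green/red ratio; MG132 control.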
# [1] = measured here: CBR red luminescence, cell number
# [2] = measured here: IkBa-CBG green luminescence
Structure (SMILES),AC50 [1],AC50 [2]
COC(=O)c1ccc(C2C(C(=O)c3cc4ccccc4o3)=C(O)C(=O)N2CCCN(C)C)cc1 (stereo unspecified),"22.4 µM [falling, single point]",–
O=C(O)c1ccc(N2CCCCCC2)c(N2C(=O)c3ccccc3C2=O)c1,"29.1 µM [rising, partial curve, poor fit]",–
CC(C)(Oc1ccc(Cl)cc1)C(=O)O/N=C(\N)c1ccncc1,"8.91 µM [rising, partial curve]",–
CCN(CC(=O)Nc1ccc(OC)cc1)C(=O)CSCc1c(C)noc1C,"0.731 µM [rising, partial curve, poor fit]",–
COc1ccc(/C=N\NC(=O)c2ccc(F)cc2)cc1COc1cc(F)ccc1[N+](=O)[O-],"15.8 µM [falling, single point]",–
CN(C)c1nc(C(F)(F)F)cc(=O)[nH]1,"20 µM [rising, partial curve, poor fit]",–
CO/N=C/C(=N\Nc1ccccc1)C(=O)c1ccccc1,"3.16 µM [rising, full curve, poor fit]",–
O=C/C=C/c1c(-c2ccccc2)cc2oc3ccccc3cc1-2,"12.6 µM [falling, single point]",–
COc1ccc2nc(/N=C(\N)NC(=O)C(C)(C)C)nc(C)c2c1,"0.501 µM [rising, full curve, poor fit]",–
COc1ccc(/C=N/NC(=O)c2cccnc2)cc1COc1ccc([N+](=O)[O-])c(C)c1,"35.5 µM [falling, single point]",–
OCCNc1nc2ccccc2n1-c1ccccc1,"32.6 µM [falling, single point]",–
Cc1ccc2c(Cl)c(C(=O)NC3CC3)sc2c1,"0.1 µM [rising, full curve, poor fit]",–
Cc1ccc(NC(=O)COc2ccc(/C=N/NC(=O)CSCc3ccccc3)cc2)cc1,"9.2 µM [rising, partial curve, poor fit]",–
CC(C)C(=O)Nc1c(-c2ccccc2F)c(=O)c2ccccc2n1C,"6.31 µM [falling, single point]",–
CC(C)COC(=O)/C(C#N)=C/c1c[nH]c2ccccc12,"0.206 µM [rising, full curve, poor fit]",–
O=C(COC(=O)c1ccc(F)cc1F)NC(=O)Nc1ccc2c(c1)OCCO2,"0.651 µM [falling, single point]",–
N#C/C(=C(/O)c1ccc(Cl)c([N+](=O)[O-])c1)c1nc2ccccc2[nH]1,"2.51 µM [falling, full curve, poor fit]",–
Oc1[nH]c2ccccc2c1N=Nc1c(F)c(F)c(Cl)c(F)c1F,"17.8 µM [falling, single point]",–
C=CCn1c(SCC(=O)c2ccc(CNC(C)=O)o2)nc2scc(C3CC3)c2c1=O,"14.6 µM [rising, partial curve]",–
Oc1ccccc1NCC(O)Cn1ccc2ccccc21 (stereo unspecified),"2.24 µM [falling, full curve]",–

# Full records from above. Values in the order: AC50 [1] | AC50 [2]
# Oc1[nH]c2ccccc2c1N=Nc1c(F)c(F)c(Cl)c(F)c1F is listed as 17.8 µM [falling, single point] | –
# N#C/C(=C(/O)c1ccc(Cl)c([N+](=O)[O-])c1)c1nc2ccccc2[nH]1 is listed as 2.51 µM [falling, full curve, poor fit] | –
# OCCNc1nc2ccccc2n1-c1ccccc1 is listed as 32.6 µM [falling, single point] | –

# (list continues)

Structure (SMILES),AC50 [1],AC50 [2]
COc1cccc(C2c3[nH]c4ccccc4c3C[C@H]3C(=O)N(C4CC4)CC(=O)N23)c1 (stereo partly specified),"4.47 µM [falling, partial curve]",–
COc1ccccc1NC(=O)c1cccc(N2C(=O)C3C4C=CC(C4)C3C2=O)c1 (stereo unspecified),"7.94 µM [falling, partial curve]",–
COc1ccc(C(=O)Nc2sc(C)c(C)c2CN2CC(C)OC(C)C2)cc1 (stereo unspecified),"0.0366 µM [falling, full curve, poor fit]",–
Cc1nn(C(C)(C)C)c(OC(=O)c2cccs2)c1S(=O)(=O)c1ccccc1,"29.1 µM [falling, single point]",–
CCC/C(C)=N\Nc1nc2c(c(=O)n(C)c(=O)n2C)n1C,"7.94 µM [falling, partial curve, poor fit]",–
COC(=O)Cc1[nH]nc2c1C(c1cccc(OC)c1OC)C(C#N)=C(N)O2 (stereo unspecified),"12.6 µM [falling, partial curve]",–
CC(C)(C)c1ccccc1NC(=O)c1ccc2c(c1)SC1=NS(=O)(=O)CCN12,"0.1 µM [rising, full curve, poor fit]",–
COC(=O)c1c(C)noc1-c1cc(C)on1,"16.4 µM [rising, partial curve, poor fit]",–
COC(=O)c1c(NC(=O)CSc2ccccc2N)sc(C)c1C,"15.8 µM [falling, partial curve, poor fit]",–
CCCCn1c(=N)n(CC(=O)c2ccc(OC)cc2)c2ccccc21,"11.2 µM [falling, partial curve]",–
O=S(=O)(c1ccccc1)c1nc(Nc2cccc(O)c2)sc1Cl,"11.6 µM [falling, partial curve, poor fit]",–
O=C(Nc1ccc(N2CCN(C(=O)c3cccs3)CC2)cc1)c1ccc([N+](=O)[O-])o1,–,"3.55 µM [falling, partial curve, poor fit]"
CCC(C(=O)NCC1CCCO1)n1nc(C)c2sc3ccccc3c2c1=O (stereo unspecified),"2.51 µM [rising, partial curve, poor fit]",–
CCOC(=O)c1nc(C)sc1-c1ccnn1S(=O)(=O)c1cccc(Cl)c1,"0.1 µM [falling, full curve, poor fit]",–
CCOC(=O)[C@@H]1[C@H]2COc3ccccc3[C@H]2N2C(=O)N(c3ccc(Cl)cc3)C(=O)[C@]12C,"22.4 µM [falling, single point]",–
CNC(=O)COC(=O)c1ccc(NC(=O)CC#N)cc1,"7.31 µM [falling, partial curve, poor fit]",–
C/C(=N\NC(=O)C1COc2ccccc2O1)c1ccccn1 (stereo unspecified),"18.4 µM [rising, partial curve]","18.4 µM [falling, single point]"
COc1ccc([N+](=O)[O-])cc1N/C(=N/S(=O)(=O)c1ccccc1)c1ccccc1,"35.5 µM [falling, single point]",–
O=C(Nc1ccc2c(c1)OCCO2)C(=O)c1c[nH]c2ccccc12,"2 µM [falling, partial curve, poor fit]",–
COc1cc(SC#N)ccc1N=Cc1c(C)[nH]n(-c2cccc3ccccc23)c1=O,"0.631 µM [falling, partial curve, poor fit]",–
